PubChem BioAssay AID1508597 – Cure First | 2020
This is an unselected part of the about 2,100 reagents, in one setting of the screen. 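Calls flag viability under 80% in either arm, not effects specific to rucaparib; the reference for percent is not stated.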 A reagent listed more than once was tested more than once; the source does not tell the runs apart. Not given: the 100% reference.

Screen: 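Genes whose silencing sensitises or protects ovarian cancer cells against rucaparib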 (primary screen)
Cell system: human ovarian carcinoma lines grown from tumours: OCI-P5x (papillary serous) and OCI-C5x (clear cell)
Reagent: siRNA pool against human genes, 1.25 pmol siRNA per well
Timing: 72 h or 96 h, depending on the cell culture
Treatment: rucaparib 20 µM (about IC30) or vehicle, present until read-out
Rucaparib or vehicle: Rucaparib
Cell line: OCI-P5x (serous)
Measurement: 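ATP luminescence measured at 72 or 96 h according to the culture, then normalised and expressed as percent viability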
Scale: viability, normalised: higher = more viable cells remaining
Rule for the call: 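Active when normalised viability falls below 80 percent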
Calls: active = viability under 80%; inactive = viability 80% or more

| Gene | technical replicate | viability, normalised (%) | activity call |
| --- | --- | --- | --- |
| DPH3 | 1 | 52.1 | active |
| DPH3 | 2 | 53.5 | active |
| DPH3 | 3 | 46.6 | active |
| EPHB4 | 1 | 99.4 | inactive |
| EPHB4 | 2 | 81 | inactive |
| EPHB4 | 3 | 80.8 | inactive |
| HIF1A | 1 | 55.3 | active |
| HIF1A | 2 | 53.1 | active |
| HIF1A | 3 | 47.7 | active |
| ZAP70 | 1 | 87.9 | inactive |
| ZAP70 | 2 | 85.9 | inactive |
| ZAP70 | 3 | 73.2 | active |
| NONO | 1 | 85.5 | inactive |
| NONO | 2 | 95.5 | inactive |
| NONO | 3 | 81.1 | inactive |
| DNM3 | 1 | 61.3 | active |
| DNM3 | 2 | 66.8 | active |
| DNM3 | 3 | 56.4 | active |
| MSH4 | 1 | 87.8 | inactive |
| MSH4 | 2 | 90.4 | inactive |
| MSH4 | 3 | 83.9 | inactive |
| SUPT16H | 1 | 45.4 | active |
| SUPT16H | 1 | 55.2 | active |
| SUPT16H | 2 | 71.4 | active |
| SUPT16H | 2 | 47.1 | active |
| SUPT16H | 3 | 45.6 | active |
| SUPT16H | 3 | 61 | active |
| SFPQ | 1 | 68.3 | active |
| SFPQ | 2 | 87.1 | inactive |
| SFPQ | 3 | 72.5 | active |
| KDM4A | 1 | 42.6 | active |
| KDM4A | 2 | 37.8 | active |
| KDM4A | 3 | 47.7 | active |
| NRXN3 | 1 | 45.6 | active |
| NRXN3 | 2 | 50.3 | active |
| NRXN3 | 3 | 53.1 | active |
| MYBL1 | 1 | 56.1 | active |
| MYBL1 | 2 | 49.8 | active |
| MYBL1 | 3 | 56.9 | active |
| SMYD3 | 1 | 48 | active |
| SMYD3 | 2 | 54.5 | active |
| SMYD3 | 3 | 44.3 | active |
| ONECUT1 | 1 | 38.9 | active |
| ONECUT1 | 2 | 50.7 | active |
| ONECUT1 | 3 | 40.3 | active |
| L3MBTL4 | 1 | 60.1 | active |
| L3MBTL4 | 2 | 67.4 | active |
| L3MBTL4 | 3 | 62 | active |
| PRDM5 | 1 | 54.7 | active |
| PRDM5 | 2 | 60.5 | active |
| PRDM5 | 3 | 58.8 | active |
| MYPOP | 1 | 36.4 | active |
| MYPOP | 2 | 46.6 | active |
| MYPOP | 3 | 34.5 | active |
| ROR1 | 1 | 76 | active |
| ROR1 | 2 | 90.9 | inactive |
| ROR1 | 3 | 79.9 | active |
| HDAC1 | 1 | 90.3 | inactive |
| HDAC1 | 1 | 58.7 | active |
| HDAC1 | 2 | 61.3 | active |
| HDAC1 | 2 | 114 | inactive |
| HDAC1 | 3 | 81.9 | inactive |
| HDAC1 | 3 | 101 | inactive |
| DPYD | 1 | 77.8 | active |
| DPYD | 2 | 67.6 | active |
| DPYD | 3 | 67.3 | active |
| CTNNB1 | 1 | 70.5 | active |
| CTNNB1 | 2 | 84.6 | inactive |
| CTNNB1 | 3 | 72.5 | active |
| WRN | 1 | 92.4 | inactive |
| WRN | 1 | 57.3 | active |
| WRN | 2 | 73 | active |
| WRN | 2 | 81.9 | inactive |
| WRN | 3 | 54.2 | active |
| WRN | 3 | 95.4 | inactive |

Laid out differently: entries from further up.
ZAP70, technical replicate 3
- viability, normalised (%): 73.2
- activity call: active

NONO, technical replicate 1
- viability, normalised (%): 85.5
- activity call: inactive

NONO, technical replicate 2
- viability, normalised (%): 95.5
- activity call: inactive

NONO, technical replicate 3
- viability, normalised (%): 81.1
- activity call: inactive
